According to the supplement of paper PMC10849652:
Some of the results follow.

Chains of the proteins cited; added tags and fusions are not shown. Lines headed by an entry give the natural chain unless they say otherwise; changes in a name come on top.
UniProt P98173: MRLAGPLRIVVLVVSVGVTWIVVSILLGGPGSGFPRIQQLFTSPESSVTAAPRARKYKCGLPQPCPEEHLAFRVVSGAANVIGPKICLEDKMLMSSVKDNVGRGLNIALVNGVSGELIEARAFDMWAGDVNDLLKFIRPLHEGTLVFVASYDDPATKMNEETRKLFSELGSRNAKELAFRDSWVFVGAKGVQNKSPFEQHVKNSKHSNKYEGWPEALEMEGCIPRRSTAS
UniProt Q96CP2: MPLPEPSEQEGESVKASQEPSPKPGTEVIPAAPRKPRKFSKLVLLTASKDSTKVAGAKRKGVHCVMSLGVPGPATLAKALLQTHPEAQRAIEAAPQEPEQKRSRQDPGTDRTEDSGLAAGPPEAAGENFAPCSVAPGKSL
UniProt P62942, whole entry, looked up: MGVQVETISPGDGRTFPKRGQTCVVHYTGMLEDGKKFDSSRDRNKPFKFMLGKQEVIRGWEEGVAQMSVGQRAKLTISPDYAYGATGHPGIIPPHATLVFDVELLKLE
UniProt P21333, whole entry, looked up: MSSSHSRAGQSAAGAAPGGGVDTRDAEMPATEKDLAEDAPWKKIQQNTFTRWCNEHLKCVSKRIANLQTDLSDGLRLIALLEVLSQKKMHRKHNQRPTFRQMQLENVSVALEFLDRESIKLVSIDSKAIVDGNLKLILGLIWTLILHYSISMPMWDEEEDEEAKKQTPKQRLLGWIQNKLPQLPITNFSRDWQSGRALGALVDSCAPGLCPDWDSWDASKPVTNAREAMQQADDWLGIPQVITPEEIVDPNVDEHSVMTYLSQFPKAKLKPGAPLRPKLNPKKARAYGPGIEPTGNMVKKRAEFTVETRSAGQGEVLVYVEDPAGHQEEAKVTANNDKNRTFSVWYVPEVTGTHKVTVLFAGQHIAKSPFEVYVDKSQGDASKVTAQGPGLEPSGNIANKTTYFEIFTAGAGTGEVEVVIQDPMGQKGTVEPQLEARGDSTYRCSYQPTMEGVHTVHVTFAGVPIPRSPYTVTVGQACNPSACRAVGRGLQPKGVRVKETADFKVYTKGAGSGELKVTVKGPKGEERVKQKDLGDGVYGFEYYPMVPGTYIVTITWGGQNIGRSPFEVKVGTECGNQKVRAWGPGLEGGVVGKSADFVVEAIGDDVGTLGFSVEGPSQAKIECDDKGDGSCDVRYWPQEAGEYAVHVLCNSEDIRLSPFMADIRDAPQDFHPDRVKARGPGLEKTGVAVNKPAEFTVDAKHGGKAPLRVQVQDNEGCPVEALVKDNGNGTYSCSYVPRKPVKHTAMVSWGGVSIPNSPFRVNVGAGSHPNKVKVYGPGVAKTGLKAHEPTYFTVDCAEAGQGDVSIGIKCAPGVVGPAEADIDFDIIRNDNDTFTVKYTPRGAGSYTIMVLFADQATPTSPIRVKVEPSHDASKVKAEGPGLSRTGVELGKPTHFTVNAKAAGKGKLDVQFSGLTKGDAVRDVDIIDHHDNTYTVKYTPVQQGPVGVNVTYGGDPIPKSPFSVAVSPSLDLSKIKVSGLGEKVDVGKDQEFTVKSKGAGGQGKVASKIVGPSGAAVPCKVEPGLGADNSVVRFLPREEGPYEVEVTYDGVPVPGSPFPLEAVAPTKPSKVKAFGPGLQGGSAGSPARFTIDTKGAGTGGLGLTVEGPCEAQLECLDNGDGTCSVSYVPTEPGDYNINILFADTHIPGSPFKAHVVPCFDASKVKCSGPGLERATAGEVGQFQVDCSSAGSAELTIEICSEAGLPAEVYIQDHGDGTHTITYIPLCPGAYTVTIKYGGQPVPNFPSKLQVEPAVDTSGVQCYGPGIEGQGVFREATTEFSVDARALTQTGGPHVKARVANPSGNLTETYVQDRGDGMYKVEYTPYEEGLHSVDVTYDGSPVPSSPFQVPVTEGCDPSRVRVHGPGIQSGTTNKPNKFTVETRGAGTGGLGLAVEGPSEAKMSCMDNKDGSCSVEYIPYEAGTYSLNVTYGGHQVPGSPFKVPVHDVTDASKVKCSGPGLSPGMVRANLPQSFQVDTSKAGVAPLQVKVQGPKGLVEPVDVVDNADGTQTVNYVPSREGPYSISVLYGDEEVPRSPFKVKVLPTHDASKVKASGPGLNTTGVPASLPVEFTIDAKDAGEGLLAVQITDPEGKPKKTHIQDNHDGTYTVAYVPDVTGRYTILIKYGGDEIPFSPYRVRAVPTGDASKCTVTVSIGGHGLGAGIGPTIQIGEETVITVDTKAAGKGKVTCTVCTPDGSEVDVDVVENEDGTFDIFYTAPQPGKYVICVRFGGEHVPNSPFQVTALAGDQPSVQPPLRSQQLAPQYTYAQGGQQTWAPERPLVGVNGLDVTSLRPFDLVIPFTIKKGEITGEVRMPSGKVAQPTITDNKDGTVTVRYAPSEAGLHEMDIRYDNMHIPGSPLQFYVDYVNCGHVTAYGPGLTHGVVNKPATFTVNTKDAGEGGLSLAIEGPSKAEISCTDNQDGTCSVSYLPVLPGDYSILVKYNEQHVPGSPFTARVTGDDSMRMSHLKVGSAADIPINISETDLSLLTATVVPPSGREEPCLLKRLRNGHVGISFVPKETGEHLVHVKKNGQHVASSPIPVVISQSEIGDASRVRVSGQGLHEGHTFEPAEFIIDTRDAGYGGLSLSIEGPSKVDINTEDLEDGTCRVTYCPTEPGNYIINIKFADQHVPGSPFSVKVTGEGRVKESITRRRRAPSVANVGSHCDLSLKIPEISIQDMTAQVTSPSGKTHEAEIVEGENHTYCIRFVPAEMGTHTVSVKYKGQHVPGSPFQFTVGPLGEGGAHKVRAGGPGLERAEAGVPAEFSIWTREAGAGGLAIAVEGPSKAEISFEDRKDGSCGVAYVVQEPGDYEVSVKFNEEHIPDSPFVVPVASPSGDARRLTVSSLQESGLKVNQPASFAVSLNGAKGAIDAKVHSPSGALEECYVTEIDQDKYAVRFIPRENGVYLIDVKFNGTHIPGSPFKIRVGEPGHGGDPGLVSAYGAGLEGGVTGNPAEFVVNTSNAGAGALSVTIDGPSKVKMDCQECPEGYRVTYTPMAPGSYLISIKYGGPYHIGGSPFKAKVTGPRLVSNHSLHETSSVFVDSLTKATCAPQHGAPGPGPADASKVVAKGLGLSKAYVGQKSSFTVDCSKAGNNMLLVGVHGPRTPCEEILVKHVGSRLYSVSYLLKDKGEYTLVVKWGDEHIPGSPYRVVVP
UniProt P22830: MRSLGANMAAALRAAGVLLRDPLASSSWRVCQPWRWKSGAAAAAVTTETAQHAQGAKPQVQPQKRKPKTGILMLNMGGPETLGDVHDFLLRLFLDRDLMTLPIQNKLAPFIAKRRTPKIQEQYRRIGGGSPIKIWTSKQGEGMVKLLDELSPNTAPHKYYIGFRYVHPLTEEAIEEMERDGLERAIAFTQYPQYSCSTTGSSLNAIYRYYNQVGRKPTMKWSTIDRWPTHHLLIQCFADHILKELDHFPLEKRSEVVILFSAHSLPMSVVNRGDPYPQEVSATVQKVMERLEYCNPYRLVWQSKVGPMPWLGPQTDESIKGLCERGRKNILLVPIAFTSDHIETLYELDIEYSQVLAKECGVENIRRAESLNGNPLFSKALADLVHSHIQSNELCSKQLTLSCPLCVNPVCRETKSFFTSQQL
UniProt Q14320: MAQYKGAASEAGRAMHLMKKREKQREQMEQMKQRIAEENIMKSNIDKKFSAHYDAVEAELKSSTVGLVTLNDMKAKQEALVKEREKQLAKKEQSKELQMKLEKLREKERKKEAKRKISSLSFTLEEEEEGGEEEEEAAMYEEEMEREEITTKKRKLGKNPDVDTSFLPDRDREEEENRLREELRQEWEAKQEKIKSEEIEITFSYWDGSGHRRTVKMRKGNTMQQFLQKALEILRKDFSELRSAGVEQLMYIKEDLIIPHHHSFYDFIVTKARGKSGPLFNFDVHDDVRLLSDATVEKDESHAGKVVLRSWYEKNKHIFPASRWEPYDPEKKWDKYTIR
UniProt Q6P3S6: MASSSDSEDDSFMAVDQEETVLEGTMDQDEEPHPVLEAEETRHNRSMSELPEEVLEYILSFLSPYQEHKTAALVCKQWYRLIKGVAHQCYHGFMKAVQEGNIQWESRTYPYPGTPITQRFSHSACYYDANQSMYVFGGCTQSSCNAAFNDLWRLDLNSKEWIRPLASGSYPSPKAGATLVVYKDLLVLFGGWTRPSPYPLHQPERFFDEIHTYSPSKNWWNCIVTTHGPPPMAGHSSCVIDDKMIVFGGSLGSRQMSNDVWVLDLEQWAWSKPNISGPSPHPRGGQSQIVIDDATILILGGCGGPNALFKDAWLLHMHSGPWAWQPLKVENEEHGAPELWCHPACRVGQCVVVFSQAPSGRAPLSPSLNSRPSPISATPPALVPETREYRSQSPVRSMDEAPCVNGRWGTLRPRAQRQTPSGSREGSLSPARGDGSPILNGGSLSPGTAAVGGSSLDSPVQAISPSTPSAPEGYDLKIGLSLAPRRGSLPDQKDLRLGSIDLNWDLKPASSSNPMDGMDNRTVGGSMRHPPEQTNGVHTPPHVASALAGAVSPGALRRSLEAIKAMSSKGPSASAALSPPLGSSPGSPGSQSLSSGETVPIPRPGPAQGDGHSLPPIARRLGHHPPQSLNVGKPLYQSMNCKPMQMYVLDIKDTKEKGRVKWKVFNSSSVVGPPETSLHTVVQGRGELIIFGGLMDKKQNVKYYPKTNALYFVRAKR
UniProt P07954: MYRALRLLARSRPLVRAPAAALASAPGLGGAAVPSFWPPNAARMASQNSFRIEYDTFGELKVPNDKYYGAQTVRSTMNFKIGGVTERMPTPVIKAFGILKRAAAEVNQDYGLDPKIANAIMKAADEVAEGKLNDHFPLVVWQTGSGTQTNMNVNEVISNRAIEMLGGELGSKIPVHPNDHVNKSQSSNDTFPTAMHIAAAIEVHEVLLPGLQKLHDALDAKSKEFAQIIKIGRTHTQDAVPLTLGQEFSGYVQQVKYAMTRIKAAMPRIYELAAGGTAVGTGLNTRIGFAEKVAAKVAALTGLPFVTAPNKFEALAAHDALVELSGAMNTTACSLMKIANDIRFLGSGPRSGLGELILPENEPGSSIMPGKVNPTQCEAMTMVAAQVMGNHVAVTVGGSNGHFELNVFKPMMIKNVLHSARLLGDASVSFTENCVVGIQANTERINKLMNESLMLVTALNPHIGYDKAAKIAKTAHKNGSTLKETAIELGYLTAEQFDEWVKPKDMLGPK
UniProt Q8NEZ5: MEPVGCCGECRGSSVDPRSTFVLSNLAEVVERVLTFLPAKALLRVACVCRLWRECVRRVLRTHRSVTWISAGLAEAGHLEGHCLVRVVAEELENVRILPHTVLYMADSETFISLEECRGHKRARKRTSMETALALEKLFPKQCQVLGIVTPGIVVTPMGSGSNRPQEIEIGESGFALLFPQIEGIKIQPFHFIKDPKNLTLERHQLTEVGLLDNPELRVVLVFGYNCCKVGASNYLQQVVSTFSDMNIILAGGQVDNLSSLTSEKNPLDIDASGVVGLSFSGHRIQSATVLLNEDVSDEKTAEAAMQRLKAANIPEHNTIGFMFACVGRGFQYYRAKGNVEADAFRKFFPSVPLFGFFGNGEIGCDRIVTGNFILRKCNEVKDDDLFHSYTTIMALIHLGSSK
UniProt P31995: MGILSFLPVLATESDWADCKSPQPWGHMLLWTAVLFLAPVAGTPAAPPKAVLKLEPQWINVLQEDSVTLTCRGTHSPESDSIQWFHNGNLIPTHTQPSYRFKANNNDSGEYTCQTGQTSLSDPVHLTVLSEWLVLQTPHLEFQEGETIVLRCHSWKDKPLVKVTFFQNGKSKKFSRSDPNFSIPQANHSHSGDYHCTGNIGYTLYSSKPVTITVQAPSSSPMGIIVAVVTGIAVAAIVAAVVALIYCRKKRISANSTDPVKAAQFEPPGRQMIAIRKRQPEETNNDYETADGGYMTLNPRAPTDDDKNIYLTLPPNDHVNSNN
UniProt O75955: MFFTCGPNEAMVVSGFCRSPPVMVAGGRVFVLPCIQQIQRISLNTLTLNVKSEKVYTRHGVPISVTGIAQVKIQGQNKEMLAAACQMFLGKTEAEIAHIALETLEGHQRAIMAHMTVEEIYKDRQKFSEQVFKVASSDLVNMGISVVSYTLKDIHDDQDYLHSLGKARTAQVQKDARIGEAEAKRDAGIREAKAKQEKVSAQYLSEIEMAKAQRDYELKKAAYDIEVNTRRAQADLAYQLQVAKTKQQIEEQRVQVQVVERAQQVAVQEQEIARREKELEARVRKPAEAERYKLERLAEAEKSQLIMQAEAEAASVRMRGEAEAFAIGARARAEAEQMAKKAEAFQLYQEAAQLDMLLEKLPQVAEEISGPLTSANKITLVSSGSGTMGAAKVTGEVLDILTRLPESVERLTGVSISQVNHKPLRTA
UniProt Q92520: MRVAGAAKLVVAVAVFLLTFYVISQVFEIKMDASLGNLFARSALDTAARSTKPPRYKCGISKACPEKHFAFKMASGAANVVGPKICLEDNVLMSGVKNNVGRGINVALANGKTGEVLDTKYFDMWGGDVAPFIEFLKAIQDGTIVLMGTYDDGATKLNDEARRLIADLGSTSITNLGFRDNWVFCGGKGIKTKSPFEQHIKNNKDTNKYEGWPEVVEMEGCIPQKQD

Columns and labels:
Assay in all cases: log2 fold change, soluble protein after heating vs DMSO (PISA); higher = thermal stabilisation; K562 cells, 10 uM, 30 min; active = over 0.2 and 3.5 SD of the protein, either way, in both replicates (recomputed)
bafetinib = compound: Cc1ccc(NC(=O)c2ccc(CN3CC[C@H](N(C)C)C3)c(C(F)(F)F)c2)cc1Nc1nccc(-c2cncnc2)n1 [bafetinib]
Procedure, shortened: (§1)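 Quantification of soluble protein used TMTpro 16plex LC-MS/MS, with channel sums equalised. Samples were the supernatant after 21,000xg for 90 min of pooled aliquots from K562 cells (2×10^6 cells/mL) treated with 10 μM compound for 30 min, heated for 3 min over 48°C-58°C, and extracted in PBS with 0.5% NP-40 at 4°C. Values, from duplicates, describe thermal stability against control samples on a log2 fold-change scale.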

[1] = compound: Cc1cccc(CC(=O)N2CCc3c2ccc(-c2cn(C)c4ncnc(N)c24)c3F)n1
Procedure, shortened: as §1

nilotinib = compound: Cc1cn(-c2cc(NC(=O)c3ccc(C)c(Nc4nccc(-c5cccnc5)n4)c3)cc(C(F)(F)F)c2)cn1 [nilotinib]
Procedure, shortened: as §1

[2] = compound: Cc1nc(Nc2n[nH]c3c2CN(C(=O)N[C@H](CN(C)C)c2ccccc2)C3(C)C)c2sccc2n1
Procedure, shortened: as §1

dasatinib = compound: Cc1nc(Nc2ncc(C(=O)Nc3c(C)cccc3Cl)s2)cc(N2CCN(CCO)CC2)n1 [dasatinib]
Procedure, shortened: as §1

[3] = compound: Cc1ncc(-c2ccnc(Nc3ccc(S(C)(=O)=O)cc3)n2)n1C(C)C
Procedure, shortened: as §1

[4] = compound: Cn1cc(-c2ccc3c(c2)CCN3C(=O)Cc2cccc(C(F)(F)F)c2)c2c(N)ncnc21
Procedure, shortened: as §1

[5] = compound: Cn1cc(-c2ccc3nnc(C(F)(F)c4ccc5ncccc5c4)n3n2)cn1
Procedure, shortened: as §1

tipifarnib = compound: Cn1cncc1[C@@](N)(c1ccc(Cl)cc1)c1ccc2c(c1)c(-c1cccc(Cl)c1)cc(=O)n2C [tipifarnib]
Procedure, shortened: as §1

mubritinib = compound: FC(F)(F)c1ccc(/C=C/c2nc(COc3ccc(CCCCn4ccnn4)cc3)co2)cc1 [mubritinib]
Procedure, shortened: as §1

[6] = compound: NC(=O)Nc1cc(-c2cccc(F)c2)sc1C(=O)N[C@H]1CCCNC1
Procedure, shortened: as §1

[7] = compound: NC(=O)c1cnc(N[C@@H]2CCCC[C@@H]2N)nc1Nc1cccc(-n2nccn2)c1
Procedure, shortened: as §1

[8] = compound: NC1(c2ccc(-c3nc4ccn5c(=O)[nH]nc5c4cc3-c3ccccc3)cc2)CCC1
Procedure, shortened: as §1

[9] = compound: NCC(=O)Nc1ccc(-n2nc(C(F)(F)F)cc2-c2ccc3c(ccc4ccccc43)c2)cc1
Procedure, shortened: as §1

entinostat = compound: Nc1ccccc1NC(=O)c1ccc(CNC(=O)OCc2cccnc2)cc1 [entinostat]
Procedure, shortened: as §1

vorinostat = compound: O=C(CCCCCCC(=O)Nc1ccccc1)NO [vorinostat]
Procedure, shortened: as §1

citarinostat = compound: O=C(CCCCCCNC(=O)c1cnc(N(c2ccccc2)c2ccccc2Cl)nc1)NO [citarinostat]
Procedure, shortened: as §1

silmitasertib = compound: O=C(O)c1ccc2c(c1)nc(Nc1cccc(Cl)c1)c1ccncc12 [silmitasertib]
Procedure, shortened: as §1

[10] = compound: O=C1NC(=O)C(c2cnc3ccccn23)=C1c1cn2c3c(cc(F)cc13)CN(C(=O)N1CCCCC1)CC2
Procedure, shortened: as §1

[11] = compound: c1cc(OCCN2CCCCC2)cc(-c2n[nH]c3ccc(-c4nnc[nH]4)cc23)c1
Procedure, shortened: as §1

Measured: log2 fold change

FAM3A (UniProt P98173)
active: [8] -0.21
inactive: bafetinib -0.027 | [1] 0.023 | nilotinib 0.007 | [2] -0.044 | dasatinib 0.036 | [3] -0.001 | [4] 0.031 | [5] -0.03 | tipifarnib 0.042 | mubritinib 0 | [6] 0.022 | [7] -0.028 | [9] 0.006 | entinostat -0.097 | vorinostat -0.01 | citarinostat 0 | silmitasertib -0.015 | [10] 0.034 | [11] -0.028

FNBP4 isoform 2 (UniProt Q8N3X1)
inactive: bafetinib -0.048 | [1] -0.035 | nilotinib -0.012 | [2] -0.004 | dasatinib 0.049 | [3] -0.043 | [4] 0.016 | [5] -0.005 | tipifarnib 0.058 | mubritinib -0.007 | [6] 0.025 | [7] 0.004 | [8] 0.015 | [9] -0.013 | entinostat -0.039 | vorinostat -0.048 | citarinostat 0.004 | silmitasertib -0.038 | [10] 0.004 | [11] -0.051

FGF2 (UniProt P09038)
inactive: bafetinib -0.048 | [1] 0.143 | nilotinib 0.029 | [2] 0.029 | dasatinib 0.047 | [3] 0.007 | [4] -0.066 | [5] -0.01 | tipifarnib 0.101 | mubritinib -0.028 | [6] -0.007 | [7] 0.062 | [8] 0.022 | [9] 0.016 | entinostat -0.02 | vorinostat 0.075 | citarinostat -0.015 | silmitasertib 0.015 | [10] -0.045 | [11] 0.035

FLYWCH2 (UniProt Q96CP2)
inactive: bafetinib -0.004 | [1] 0.124 | nilotinib 0.019 | [2] -0.018 | dasatinib 0.01 | [3] 0.005 | [4] 0.043 | [5] -0.042 | tipifarnib -0.02 | mubritinib -0.005 | [6] -0.027 | [7] 0.073 | [8] 0.039 | [9] 0.021 | entinostat 0.01 | vorinostat 0.076 | citarinostat 0.025 | silmitasertib 0.006 | [10] -0.026 | [11] 0.012

FKBP1A (UniProt P62942)
inactive: bafetinib 0.027 | [1] -0.092 | nilotinib -0.017 | [2] 0.069 | dasatinib -0.152 | [3] -0.054 | [4] 0.075 | [5] -0.06 | tipifarnib -0.169 | mubritinib -0.013 | [6] 0.073 | [7] -0.101 | [8] 0.107 | [9] 0.031 | entinostat -0.028 | vorinostat 0.088 | citarinostat 0.011 | silmitasertib -0.1 | [10] -0.013 | [11] -0.022

FLNA (UniProt P21333)
inactive: bafetinib 0.011 | [1] 0.059 | nilotinib -0.056 | [2] -0.025 | dasatinib -0.158 | [3] 0.059 | [4] -0.053 | [5] 0.007 | tipifarnib -0.176 | mubritinib 0.112 | [6] -0.069 | [7] -0.069 | [8] -0.093 | [9] -0.072 | entinostat 0.042 | vorinostat 0.061 | citarinostat 0.062 | silmitasertib 0.11 | [10] -0.002 | [11] -0.032

FECH isoform 2 (UniProt P22830)
inactive: bafetinib 0.315 | [1] -0.125 | nilotinib 0.189 | [2] -0.04 | dasatinib 0.46 | [3] 0.134 | [4] 0.549 | [5] 0.248 | tipifarnib 0.134 | mubritinib 0.034 | [6] -0.031 | [7] 0.171 | [8] 0.288 | [9] 0.021 | entinostat -0.01 | vorinostat -0.228 | citarinostat -0.031 | silmitasertib -0.035 | [10] 0 | [11] 0.38

FAM50A (UniProt Q14320)
inactive: bafetinib -0.035 | [1] -0.045 | nilotinib -0.016 | [2] -0.096 | dasatinib -0.134 | [3] 0.029 | [4] -0.021 | [5] 0.044 | tipifarnib -0.031 | mubritinib 0.083 | [6] 0.003 | [7] -0.008 | [8] -0.087 | [9] -0.082 | entinostat 0.045 | vorinostat 0.011 | citarinostat 0.095 | silmitasertib 0.071 | [10] -0.001 | [11] -0.019

FBXO42 (UniProt Q6P3S6)
inactive: bafetinib -0.014 | [1] -0.006 | nilotinib -0.006 | [2] 0.028 | dasatinib -0.036 | [3] -0.026 | [4] 0.137 | [5] -0.007 | tipifarnib 0.006 | mubritinib 0.059 | [6] -0.048 | [7] -0.087 | [8] -0.176 | [9] 0.061 | entinostat -0.028 | vorinostat -0.03 | citarinostat -0.001 | silmitasertib 0.006 | [10] 0.013 | [11] -0.026

FH (UniProt P07954)
inactive: bafetinib -0.005 | [1] 0.002 | nilotinib 0.071 | [2] 0.025 | dasatinib -0.079 | [3] -0.06 | [4] 0.063 | [5] 0.016 | tipifarnib -0.036 | mubritinib 0.136 | [6] -0.016 | [7] -0.022 | [8] -0.071 | [9] -0.01 | entinostat -0.016 | vorinostat -0.013 | citarinostat -0.001 | silmitasertib -0.015 | [10] -0.019 | [11] -0.033

2 entries drawn at random from the list so far, as already listed:
FH (UniProt P07954)
inactive: bafetinib -0.005 | [1] 0.002 | nilotinib 0.071 | [2] 0.025 | dasatinib -0.079 | [3] -0.06 | [4] 0.063 | [5] 0.016 | tipifarnib -0.036 | mubritinib 0.136 | [6] -0.016 | [7] -0.022 | [8] -0.071 | [9] -0.01 | entinostat -0.016 | vorinostat -0.013 | citarinostat -0.001 | silmitasertib -0.015 | [10] -0.019 | [11] -0.033

FBXO42 (UniProt Q6P3S6)
inactive: bafetinib -0.014 | [1] -0.006 | nilotinib -0.006 | [2] 0.028 | dasatinib -0.036 | [3] -0.026 | [4] 0.137 | [5] -0.007 | tipifarnib 0.006 | mubritinib 0.059 | [6] -0.048 | [7] -0.087 | [8] -0.176 | [9] 0.061 | entinostat -0.028 | vorinostat -0.03 | citarinostat -0.001 | silmitasertib 0.006 | [10] 0.013 | [11] -0.026

(list continues)

FBXO22 (UniProt Q8NEZ5)
inactive: bafetinib -0.008 | [1] 0.091 | nilotinib -0.024 | [2] -0.058 | dasatinib -0.131 | [3] 0.024 | [4] 0.047 | [5] -0.02 | tipifarnib -0.051 | mubritinib 0.132 | [6] 0.04 | [7] -0.013 | [8] -0.071 | [9] 0 | entinostat 0.014 | vorinostat 0 | citarinostat 0.083 | silmitasertib -0.025 | [10] -0.083 | [11] 0.021

FAM91A1 (UniProt Q658Y4)
inactive: bafetinib -0.01 | [1] 0.07 | nilotinib -0.007 | [2] 0.073 | dasatinib -0.048 | [3] 0.01 | [4] 0.021 | [5] -0.015 | tipifarnib -0.004 | mubritinib 0.052 | [6] -0.009 | [7] -0.061 | [8] -0.08 | [9] -0.042 | entinostat -0.003 | vorinostat 0.004 | citarinostat -0.003 | silmitasertib 0.073 | [10] -0.346 | [11] -0.084

FCGR2C (UniProt P31995)
inactive: bafetinib 0.011 | [1] -0.044 | nilotinib 0.064 | [2] -0.021 | dasatinib 0.025 | [3] -0.037 | [4] 0.026 | [5] -0.001 | tipifarnib -0.023 | mubritinib 0.062 | [6] -0.092 | [7] 0.074 | [8] 0.098 | [9] 0.05 | entinostat -0.019 | vorinostat -0.052 | citarinostat 0.038 | silmitasertib -0.051 | [10] -0.03 | [11] -0.065

FLOT1 (UniProt O75955)
inactive: bafetinib 0.079 | [1] 0.077 | nilotinib -0.057 | [2] -0.064 | dasatinib -0.013 | [3] 0.009 | [4] -0.25 | [5] -0.005 | tipifarnib 0.125 | mubritinib -0.105 | [6] -0.054 | [7] -0.078 | [8] -0.165 | [9] -0.065 | entinostat 0.105 | vorinostat -0.047 | citarinostat -0.009 | silmitasertib 0.1 | [10] 0.1 | [11] -0.145

FAM3C (UniProt Q92520)
inactive: bafetinib -0.056 | [1] -0.024 | nilotinib 0.095 | [2] -0.161 | dasatinib 0.026 | [3] -0.006 | [4] -0.019 | [5] 0.056 | tipifarnib 0.036 | mubritinib 0.027 | [6] 0.015 | [7] 0.056 | [8] -0.088 | [9] 0.029 | entinostat -0.045 | vorinostat -0.025 | citarinostat 0.037 | silmitasertib 0.03 | [10] 0.021 | [11] 0.007
